Results are given in words; binding and its absence hold for the method and conditions named. Binding seen in cells or lysates may run through a third protein. Some binding calls cover weakened binding; strength is not graded here.

These results are taken from article PMC3393700, “Localization and Sub-Cellular Shuttling of HTLV-1 Tax with the miRNA Machinery” (PLoS ONE, 2012).

For assay [1], the target named is HTLV-1 Tax, wild type, expressed in 293T cells (HTLV-1) (UniProt P03409). The assay can be described thus: co-IP; 293T whole cell extracts (~1 mg) of cells transfected with pACH.Tax or pACH.M22 in the presence of the proteasome inhibitor PSI (10 µM); IP with α-Tax overnight at 4°C, Protein A+G beads, washes with TNE150 and TNE50 + 0.1% NP-40; western blot for Drosha. For orientation: In western blotting, separated proteins are transferred to a membrane and probed.

For assay [2], the target named is GST-Tax wild type (HTLV-1) (UniProt P03409). The assay can be described thus: pull-down; GST-Tax fusion proteins bound to glutathione-Sepharose beads incubated with HeLa whole cell extract (1 mg) in TNE50 + 0.1% NP-40 overnight at 4°C; washed with TNE150 + 0.1% NP-40 and TNE50 + 0.1% NP-40; western blot for Drosha; only the target purified.
The target in assay [3] is GST-Tax N-terminus, 1–244 (HTLV-1) (UniProt P03409). The description is as above.

On to “Drosha (endogenous, 293T cell lysate) (from UniProt Q9NRR4 1-1374) (enzyme)”, for which the binding entry in assay [1] was “binds”.

B1: Drosha (endogenous, 293T cell lysate) (enzyme, human (endogenous in 293T), UniProt Q9NRR4 1-1374, looked up)
chain: MMQGNTCHRMSFHPGRGCPRGRGGHGARPSAPSFRPQNLRLLHPQQPPVQYQYEPPSAPSTTFSNSPAPNFLPPRPDFVPFPPPMPPSAQGPLPPCPIRPPFPNHQMRHPFPVPPCFPPMPPPMPCPNNPPVPGAPPGQGTFPFMMPPPSMPHPPPPPVMPQQVNYQYPPGYSHHNFPPPSFNSFQNNPSSFLPSANNSSSPHFRHLPPYPLPKAPSERRSPERLKHYDDHRHRDHSHGRGERHRSLDRRERGRSPDRRRQDSRYRSDYDRGRTPSRHRSYERSRERERERHRHRDNRRSPSLERSYKKEYKRSGRSYGLSVVPEPAGCTPELPGEIIKNTDSWAPPLEIVNHRSPSREKKRARWEEEKDRWSDNQSSGKDKNYTSIKEKEPEETMPDKNEEEEEELLKPVWIRCTHSENYYSSDPMDQVGDSTVVGTSRLRDLYDKFEEELGSRQEKAKAARPPWEPPKTKLDEDLESSSESECESDEDSTCSSSSDSEVFDVIAEIKRKKAHPDRLHDELWYNDPGQMNDGPLCKCSAKARRTGIRHSIYPGEEAIKPCRPMTNNAGRLFHYRITVSPPTNFLTDRPTVIEYDDHEYIFEGFSMFAHAPLTNIPLCKVIRFNIDYTIHFIEEMMPENFCVKGLELFSLFLFRDILELYDWNLKGPLFEDSPPCCPRFHFMPRFVRFLPDGGKEVLSMHQILLYLLRCSKALVPEEEIANMLQWEELEWQKYAEECKGMIVTNPGTKPSSVRIDQLDREQFNPDVITFPIIVHFGIRPAQLSYAGDPQYQKLWKSYVKLRHLLANSPKVKQTDKQKLAQREEALQKIRQKNTMRREVTVELSSQGFWKTGIRSDVCQHAMMLPVLTHHIRYHQCLMHLDKLIGYTFQDRCLLQLAMTHPSHHLNFGMNPDHARNSLSNCGIRQPKYGDRKVHHMHMRKKGINTLINIMSRLGQDDPTPSRINHNERLEFLGDAVVEFLTSVHLYYLFPSLEEGGLATYRTAIVQNQHLAMLAKKLELDRFMLYAHGPDLCRESDLRHAMANCFEALIGAVYLEGSLEEAKQLFGRLLFNDPDLREVWLNYPLHPLQLQEPNTDRQLIETSPVLQKLTEFEEAIGVIFTHVRLLARAFTLRTVGFNHLTLGHNQRMEFLGDSIMQLVATEYLFIHFPDHHEGHLTLLRSSLVNNRTQAKVAEELGMQEYAITNDKTKRPVALRTKTLADLLESFIAALYIDKDLEYVHTFMNVCFFPRLKEFILNQDWNDPKSQLQQCCLTLRTEGKEPDIPLYKTLQTVGPSHARTYTVAVYFKGERIGCGKGPSIQQAEMGAAMDALEKYNFPQMAHQKRFIERKYRQELKEMRWEREHQEREPDETEDIKK
Take B1: the binding result in assay [2] and in assay [3] was “binds” in each case.
